The campaign covered roughly 300,000 compounds. About 3,700 (1.2%) were called active. Inconclusive results, whose numbers are uncertain, are shown with a selection of clear calls. Calls follow the shape of the full dose curve; tested in HEK293 cells. Potencies beside an inconclusive call are fits to weak or partial responses and may not hold up.
Test: qHTS for Inhibitors of binding or entry into cells for Lassa Virus; also: nearly all actives have a fitted effect of over 50% in size
Conditions: Lassa virus pseudotype entry inhibition, cell reporter; activity change, negative = inhibition: at 37.9 µM (top of the series) unless noted
% is scaled to controls: 0 for no effect and ±100 for the full control effect; potency is read from the fitted curve at half-maximal effect.

| SMILES | Potency | activity change, negative = inhibition |
| --- | --- | --- |
| CN(CC(=O)Nc1sccc1C#N)S(=O)(=O)c1ccc(F)cc1 | inconclusive: 7.94 µM [inhibitor, partial curve, poor fit] |  |
| C=CCn1c(SC(C)C(=O)Nc2ccc(Cl)cn2)nnc1C1CC1 (centres undefined) |  | inactive: -6.2% |
| Cc1cnc(NC(=O)CN2CCN(c3ccccn3)CC2)s1 |  | inactive: 2.02% |
| COCOCCn1cc(CN2CCS(=O)(=O)N(Cc3ccc(-c4ccc(OC)c(OC)c4)cc3)C(C)C2=O)nn1 (centres undefined) | inconclusive: 4.45 µM [activator, partial curve, poor fit] |  |
| COC(=O)C1=C(NC(=O)c2cccc(OC)c2)CCS1 |  | inactive: -7.1% |
| Cc1ccc(NC(=O)CSc2nnc(NC(=O)c3ccc(S(=O)(=O)N4CCOCC4)cc3)s2)cc1 | inconclusive: 22.4 µM [inhibitor, single point] |  |
| Cc1cc(NC(=O)Nc2cccc(C)c2C)no1 |  | inactive: -18.5% [at 46.1 µM] |
| Cc1cccc(NC(=O)COc2ccccc2C)n1 | inconclusive: 4.11 µM [activator, full curve, poor fit] |  |
| CC(C)C[C@H](NC(=O)OC(C)(C)C)c1nnc(SCc2cccc(F)c2)o1 | inconclusive: 29.1 µM [inhibitor, single point] |  |
| COc1ccc(CN(C)C(=O)c2cccc(NS(=O)(=O)c3ccccc3)c2)cc1F | inconclusive: 1.12 µM [activator, partial curve, poor fit] |  |
| COc1ccc(CNCC(O)(c2ccccc2)c2ccc(Cl)cc2)cc1 (centres undefined) |  | inactive: -14.4% |
| CCOc1ccccc1NS(=O)(=O)c1c(-c2ccc(C)cc2)csc1C(=O)OC | inconclusive: 35.5 µM [inhibitor, single point] |  |
| Cc1cc(C)cc(CN2C(=O)NC3(CCCCCC3)C2=O)c1 | inconclusive: 35.5 µM [inhibitor, single point] |  |
| Cc1ccc(C(=O)NCC(c2ccco2)N2CCc3ccccc32)cc1C (centres undefined) | inconclusive: 31.6 µM [inhibitor, single point] |  |
| O=C(c1ccc(N2CCCCC2)c([N+](=O)[O-])c1)N1CCN(S(=O)(=O)c2ccccc2)CC1 | inconclusive: 25.1 µM [inhibitor, single point] |  |
| OC(CNCc1ccc(Cl)cc1)(c1ccccc1)c1ccc(F)cc1 (centres undefined) |  | inactive: -17.9% |
| COc1ccccc1NC(=O)N(Cc1ccco1)Cc1cc2c(C)ccc(C)c2[nH]c1=O |  | inactive: 0.301% |
| CCCc1nnc(NC(=O)c2nc(S(=O)(=O)Cc3ccc(C)cc3)ncc2Cl)s1 | inconclusive: 17.8 µM [inhibitor, single point] |  |
| Cc1ccccc1CN1CCN(C2CCC2)CC1CCO (centres undefined) | inconclusive: 0.501 µM [inhibitor, full curve, poor fit] |  |
| Cc1ccc(C)c(N2CCN(C(=O)CCNC(=O)Cn3ccc4ccccc4c3=O)CC2)c1 |  | inactive: -18.5% |
| O=C(Nc1ccc2c(c1)OCO2)Nc1ccc(Cl)cc1Cl | inconclusive: 4.11 µM [activator, single point] |  |
| COc1cc2c(cc1OC)C(c1ccccc1)N(C(=O)CCl)CC2 (centres undefined) | inconclusive: 12.6 µM [inhibitor, partial curve, poor fit] |  |

| SMILES | Potency | activity change, negative = inhibition |
| --- | --- | --- |
| C=CCn1c(Cc2cccs2)nnc1SCC(=O)c1ccc2ccccc2c1 | inconclusive: 32.6 µM [inhibitor, partial curve, poor fit] |  |
| CN(C)CCCN(C(=O)c1ccc(S(=O)(=O)N2CCCCC2)cc1)c1nc2cc3c(cc2s1)OCO3 | inconclusive: 35.5 µM [inhibitor, single point] |  |
| CN1CCN(S(=O)(=O)c2cc([N+](=O)[O-])ccc2N/N=C/c2ccc(Cl)cc2)CC1 | inconclusive: 35.5 µM [activator, single point] |  |
| Cc1cc(/C=C2\NC(=O)NC2=O)c(C)n1-c1ccc(N2CCOCC2)cc1 | inconclusive: 3.55 µM [inhibitor, full curve] |  |
| CCN(CC)CCCCN1c2ccccc2Sc2ccccc21 | inconclusive: 20 µM [inhibitor, single point] |  |
| COc1ccc2oc(=O)c(C(=O)N3c4ccccc4CC3C)cc2c1 (centres undefined) |  | inactive: -17.1% |
| Cc1nc2ccccn2c1-c1ccnc(SCc2ccc(Cl)cc2)n1 |  | inactive: -7.82% |
| Cc1cc(NC(=O)CSc2nnc3ccccn23)no1 | inconclusive: 25.1 µM [inhibitor, single point] |  |
| Cc1ccnc(SCC(=O)Nc2c(C)n(C)n(-c3ccccc3)c2=O)n1 | inconclusive: 23.1 µM [activator, partial curve, poor fit] |  |
| Cc1ccc(C)c(N2CCN(C(=O)CN3C(=O)CSc4c3c(C)nn4-c3ccccc3)CC2)c1 |  | inactive: 10.8% [at 46.1 µM] |
| O=C(NCc1ccc(Cl)cc1)N1CCc2ccccc2C1 |  | inactive: -2.15% [at 46.1 µM] |
| CC1(C)Cc2c(ccc3ccccc23)C(=O)N1 | inconclusive: 20.6 µM [activator, single point] |  |
| CCN(CC)c1ccc(NC(=O)c2cccc(OC)c2)c(C)c1 | inconclusive: 29.1 µM [inhibitor, single point] |  |
| O=c1cc(O)c2ccccc2[nH]1 |  | inactive: -5.25% [at 46.1 µM] |
| CC(C)(C)NC(=O)C(c1c[nH]c2ccccc12)N(C(=O)Cn1nnc(-c2ccc(Cl)cc2)n1)c1ccccc1F (centres undefined) | inconclusive: 8.91 µM [inhibitor, partial curve] |  |
| CCN1C/C(=C/c2ccc(N3CCOCC3)cc2)C(=O)/C(=C/c2ccc(N3CCOCC3)cc2)C1 | inconclusive: 35.5 µM [inhibitor, single point] |  |
| CCN1C(=O)CSC1=NC12CC3CC(CC(C3)C1)C2 | inconclusive: 9.2 µM [inhibitor, partial curve, poor fit] |  |
| Cc1ccc(N(C)C(=O)C2CCCN2S(=O)(=O)c2cccc3nsnc23)cc1 (centres undefined) | inconclusive: 7.94 µM [inhibitor, partial curve, poor fit] |  |
| CCOC(=O)c1cc(-c2ccccc2)n(CC(=O)NCc2ccccc2OC)c1C | active: 7.08 µM |  |
| O=C(NCCc1ccccc1)C(=O)NCC1OCCN1S(=O)(=O)c1cccs1 (centres undefined) | inconclusive: 6.31 µM [inhibitor, single point] |  |
| Cc1ccc(C)c(SCC(=O)Nc2oc(C)c3c(C)n[nH]c(=O)c23)c1 |  | inactive: 20.7% |
| Cc1cc(/C=C(\C#N)C(=O)O)c(C)n1C1CC1 |  | inactive: 5.17% |

Filtered by structure: the compounds so far with fluorine (five)

| SMILES | Potency | activity change, negative = inhibition |
| --- | --- | --- |
| CN(CC(=O)Nc1sccc1C#N)S(=O)(=O)c1ccc(F)cc1 | inconclusive: 7.94 µM [inhibitor, partial curve, poor fit] |  |
| CC(C)C[C@H](NC(=O)OC(C)(C)C)c1nnc(SCc2cccc(F)c2)o1 | inconclusive: 29.1 µM [inhibitor, single point] |  |
| COc1ccc(CN(C)C(=O)c2cccc(NS(=O)(=O)c3ccccc3)c2)cc1F | inconclusive: 1.12 µM [activator, partial curve, poor fit] |  |
| OC(CNCc1ccc(Cl)cc1)(c1ccccc1)c1ccc(F)cc1 (centres undefined) |  | inactive: -17.9% |
| CC(C)(C)NC(=O)C(c1c[nH]c2ccccc12)N(C(=O)Cn1nnc(-c2ccc(Cl)cc2)n1)c1ccccc1F (centres undefined) | inconclusive: 8.91 µM [inhibitor, partial curve] |  |
